These are yes or no findings as the source states them, for the method shown. Binding seen in cells or lysates may run through a third protein. Binding calls can cover weak binding; strength is not graded here.
Biological target: T1, VAMP‐associated protein A (human (endogenous in HCCLM3‐BM4)) (UniProt Q9P0L0)
T1 sequence: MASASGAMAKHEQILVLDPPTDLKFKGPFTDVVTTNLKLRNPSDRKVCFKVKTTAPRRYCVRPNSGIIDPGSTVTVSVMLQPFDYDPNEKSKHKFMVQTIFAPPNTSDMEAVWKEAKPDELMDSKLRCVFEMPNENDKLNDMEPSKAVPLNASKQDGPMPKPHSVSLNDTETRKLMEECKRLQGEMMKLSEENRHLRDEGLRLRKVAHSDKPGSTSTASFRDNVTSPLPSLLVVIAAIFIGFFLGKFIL
Assay: co-IP; endogenous proteins in HCCLM3‐BM4 cells and in LOs derived from HCCLM3‐BM4 cells (Figure 1I, Figure S2A)

binding: binds
Substance: αV‐integrin (human (endogenous in HCCLM3‐BM4))

Reference: publication PMC9631052
